Experimental data taken from US10301664B2, “Repurposing non-antimicrobial drugs and clinical molecules to treat bacterial infections” (Purdue Research Foundation, priority 2015, dated 2019).
For at least one compound, name, drawing or mass did not settle the structure.

Assays:
[1] = system: intracellular MRSA; experiment: Synergy with conventional antimicrobials in infected cell cultures; format: cell-based; settings: compared to monotherapy
[2] = system: S. aureus biofilm; experiment: Reduction of adherent S. aureus biofilm; format: cell-based; settings: compared to linezolid, mupirocin, vancomycin, rifampicin
Text: (§1) Biofilms are a major contributing factor to lack of healing of chronic wounds, as the matrix-embedded bacteria are recalcitrant to antibiotics and host immune response, rendering them extremely challenging and costly to treat.

[3] = system: MRSA USA300; experiment: Mouse-model of staphylococcal skin infection: bacterial load; format: in vivo, BALB/c mice; settings: topical 20 mg of 2% in petroleum jelly, twice a day for 5 days
Procedure: Auranofin and ebselen were evaluated in a mouse-model of staphylococcal skin infection. Seven groups of BALB/c mice (n=5) were inoculated with MRSA USA300 (4.3×10^9 CFU/ml) intradermally. 48 hours after infection and formation of open wound, four groups were treated topically with 20 mg of 2% Ebselen, 2% Auranofin, 2% mupirocin or 2% […] in petroleum jelly (ointment—skin protectant). Two groups were treated orally with either linezolid or clindamycin (25 mg/kg). The last group received the vehicles alone (petroleum jelly). All groups were treated twice a day for 5 days.
Since the clinical severity of bacterial skin infections is driven by the excess host pro-inflammatory cytokines rather than by bacterial burden, the recognized anti-inflammatory response of Auranofin and Ebselen combined with the potent antimicrobial, killing intracellular MRSA, and antibiofilm activities, should provide great advantage in the treatment of bacterial skin infection and wound healing. In this Example, we evaluated Auranofin and Ebselen in a mouse-model of staphylococcal skin infection. Seven groups of BALB/c mice (n=5) were inoculated with MRSA USA300 (4.3×10^9 CFU/ml) intradermally. 48 hours after infection and formation of open wound, four groups were treated topically with 20 mg of 2% ebselen, 2% auranofin, 2% mupirocin or 2% […] in petroleum jelly (ointment—skin protectant). […]

[4] = system: pro-inflammatory cytokines (TNF-α, IL-6, IL-1β, MCP-1); experiment: Cytokines production in MRSA skin infection in mice; format: in vivo; settings: topical application
Text: Each points represents single mice and each group has 5 mice. P values of (*P≤0.05) (**P≤0.01) are considered as significant. We investigated the immunomodulatory activity of Auranofin and ebselen in a topical application against MRSA skin infection in mice.
In this Example, we investigated the immunomodulatory activity of Auranofin and Ebselen in a topical application against MRSA skin infection in mice. […] These cytokines are thought to play a greater role in the severity of S. aureus skin infections more than the size of the bacterial burden and can lead to an infection persisting for a longer time period. Therefore, the ability of Auranofin and Ebselen reduces the production of these cytokines in the infected mice, indicating the clinical relevance of these drugs if used for antimicrobial treatment.

[5] = system: multiple MRSA and VRSA strains; experiment: Synergy with conventional antimicrobials in vitro; format: cell-based, S. aureus; settings: most tested conventional antimicrobials, all tested strains (few exceptions such as VRSA5)
[6] = system: intracellular MRSA USA300 in J774A.1 cells; experiment: Activity against intracellular MRSA in J774A.1 cells; format: cell-based; settings: compared to vancomycin and linezolid
[7] = system: S. epidermidis biofilm; experiment: Reduction of adherent S. epidermidis biofilm; format: cell-based; settings: compared to linezolid, mupirocin, vancomycin, rifampicin
Text: as §1

[8] = system: rabbit reticulocyte lysate system (mammalian protein synthesis); experiment: Mammalian protein synthesis in rabbit reticulocyte lysate system; format: biochemical
Text: (IC50) of Auranofin in rabbit reticulocyte extract. […] The results are given as means±SD (data without error bars indicate that the SD is too small to be seen).
In this Example, we tested the effects of the two drugs on bacterial, mammalian and mitochondrial protein-synthesis. For bacterial protein-synthesis inhibition, we used E. coli cellular extracts in a transcription and translation assay that monitors protein production via luciferase readout.

**Q.** Which “activity when combined with Auranofin and Ebselen in infected cell cultures” value [1] does the source give for `CCC[C@@H]1C[C@@H](C(=O)N[C@@H]([C@H]2O[C@H](SC)[C@H](O)[C@@H](O)[C@H]2O)[C@H](C)Cl)N(C)C1` [clindamycin] here?
**A.** The value was “synergistic activity”.

**Q.** Which “activity when combined with Auranofin and Ebselen in infected cell cultures” value [1] does the source give for `CO[C@H]1/C=C/O[C@@]2(C)Oc3c(C)c(O)c4c(O)c(c(/C=N/N5CCN(C)CC5)c(O)c4c3C2=O)NC(=O)/C(C)=C\C=C\[C@H](C)[C@H](O)[C@@H](C)[C@@H](O)[C@@H](C)[C@H](OC(C)=O)[C@@H]1C` [rifampicin] here?
**A.** Its value is “synergistic activity”.

**Q.** For `O=c1c2ccccc2[se]n1-c1ccccc1` [Ebselen], which “reduction of adherent biofilm” value [2] is on record?
**A.** Its value is “superior in reducing adherent biofilms”.

**Q.** What about the “bacterial load in MRSA skin lesions” value [3] of the same compound?
**A.** Its value is “significantly reduced the bacterial load”.

**Q.** And the “level of IL-6” value [4]?
**A.** Its value is “significantly reduced”.

**Q.** What about the “level of TNF-α” value [4] of the same compound?
**A.** Its value is “significantly reduced”.

**Q.** What about the “level of IL-1β” value ([4]; data not shown) of the same compound?
**A.** The value was “significantly reduced”.

**Q.** And the “level of MCP-1” value ([4]; data not shown)?
**A.** The value was “significantly reduced”.

**Q.** And the “relationship with conventional antimicrobials in vitro” value [5]?
**A.** Its value is “synergistic relationship”.

**Q.** What about the “reduction of intracellular MRSA” value [6] of the same compound?
**A.** The value was “superior in reducing intracellular MRSA”.

**Q.** What about the “reduction of adherent biofilm” value [7] of the same compound?
**A.** The value was “superior in reducing adherent biofilms”.

**Q.** What about the “inhibition of translation in mammalian protein synthesis” value [8] of the same compound?
**A.** The value was “did not inhibit translation”.
